Test results as given in the supplement of paper PMC9226226.
“And” between values parts separate entries of the source, which are not always exact repeats. Identical values can stand only once. The list shows a part of the results. Several reference drugs read as weak here; read low effects with care.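 The cells are human mesenchymal stem cells that lack the Werner syndrome gene and age prematurely. Growth was tracked by automated live-cell imaging in three biological repeats, and the twenty drugs that most raised growth over vehicle were taken forward, with no fixed cutoff stated.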

Test system: Werner syndrome hMSCs (WRN-/-)
Assay: relative cell density (fold change vs vehicle control); higher = more proliferation (geroprotective)
Conditions: concentration (umol/L): 1, 6 days

| SMILES | relative cell density (vehicle: DMSO) | relative cell density (vehicle: Water) |
| --- | --- | --- |
| O=C(O)c1cc(/N=N/c2ccc(O)c(C(=O)O)c2)ccc1O | 1.02 | – |
| CC(C)(C)NCC(O)COc1cccc2c1CCC(=O)N2 (centres undefined) | 1.11 | – |
| CNC(=O)c1cc(Oc2ccc(NC(=O)Nc3ccc(Cl)c(C(F)(F)F)c3)c(F)c2)ccn1 | 0.917 and 1.18 | – |
| CN(C)C(=O)C(CCN1CCC(O)(c2ccc(Cl)cc2)CC1)(c1ccccc1)c1ccccc1 | 1.13 | – |
| Cc1ccccc1C(=O)Nc1ccc(C(=O)N2CCCC(O)c3cc(Cl)ccc32)c(C)c1 (centres undefined) | 1.05 | – |
| Nc1nc2[nH]cnc2c(=S)[nH]1 | 0.916 | – |
| CC(C(=O)O)c1ccc2c(c1)[nH]c1ccc(Cl)cc12 (centres undefined) | 0.876 | – |
| CO/N=C(\C(=O)N[C@@H]1C(=O)N2C(C(=O)O)=C(CSc3nnnn3C)CS[C@H]12)c1csc(N)n1 | 1.02 | – |
| C[C@H]1O[C@@H](O[C@H]2[C@@H](O)C[C@H](O[C@H]3[C@@H](O)C[C@H](O[C@H]4CC[C@@]5(C)[C@H](CC[C@@H]6[C@@H]5C[C@@H](O)[C@]5(C)[C@@H](C7=CC(=O)OC7)CC[C@]65O)C4)O[C@@H]3C)O[C@@H]2C)C[C@H](O)[C@@H]1O | 0.192 | – |
| CC(C(=O)O)c1ccc(-c2ccccc2)c(F)c1 (centres undefined) | 1.08 | – |
| NC(=O)c1cn(Cc2c(F)cccc2F)nn1 | 0.841 | – |
| CC[C@H]1OC(=O)[C@H](C)[C@@H](O[C@H]2C[C@@](C)(OC)[C@@H](O)[C@H](C)O2)[C@H](C)[C@@H](O[C@@H]2O[C@H](C)C[C@H](N(C)C)[C@H]2O)[C@](C)(O)C[C@@H](C)C(=O)[C@H](C)[C@H]2OC(=O)O[C@@]21C | 1.13 | – |
| Cc1c(OCC(F)(F)F)ccnc1C[S@@+]([O-])c1nc2ccccc2[nH]1 | 1.05 | – |
| C[C@H](CCC(=O)O)[C@H]1CC[C@H]2[C@@H]3[C@H](O)C[C@@H]4C[C@H](O)CC[C@]4(C)[C@H]3C[C@H](O)[C@]12C | 0.998 | – |
| Cc1cccc(C)c1OCC(C)N (centres undefined) | 0.147 | – |
| CN1[C@@H]2CC[C@H]1C[C@@H](OC(=O)c1c[nH]c3ccccc13)C2 | 1.3 | – |
| Cc1cc(=O)[nH]c(=S)[nH]1 | 1.04 | – |
| CC[C@]1(O)C[C@H]2CN(CCc3c([nH]c4ccccc34)[C@@](C(=O)OC)(c3cc4c(cc3OC)N(C=O)[C@H]3[C@@](O)(C(=O)OC)[C@H](OC(C)=O)[C@]5(CC)C=CCN6CC[C@]43[C@@H]65)C2)C1 | 0.159 | – |
| Nc1nc(CC(=O)Nc2ccc(CCNC[C@H](O)c3ccccc3)cc2)cs1 | 1.04 | – |
| NC[C@@H]1O[C@H](O[C@H]2[C@@H](O)[C@H](O[C@@H]3[C@@H](O)[C@H](N)C[C@H](N)[C@H]3O[C@H]3O[C@H](CO)[C@@H](O)[C@H](O)[C@H]3N)O[C@@H]2CO)[C@H](N)[C@@H](O)[C@@H]1O | – | 0.814 |
| COc1ccccc1OCC(O)CO (centres undefined) | 1.29 | – |
| Oc1c(Cl)cc(Cl)c(Cl)c1Cc1c(O)c(Cl)cc(Cl)c1Cl | 0.655 | – |
| CCOc1cc2ncc(C#N)c(Nc3ccc(F)c(Cl)c3)c2cc1NC(=O)/C=C/CN(C)C | 0.501 | – |
| Cc1cc(/C=C/C#N)cc(C)c1Nc1ccnc(Nc2ccc(C#N)cc2)n1 | 1.19 | – |
| Oc1ccc(/C=C/c2cc(O)cc(O)c2)cc1 | 1.12 | – |
| CCOC(=O)C1=C(COCCN)NC(C)=C(C(=O)OC)C1c1ccccc1Cl (centres undefined) | 1.1 and 1.06 | – |
| CN1CC(O)c2cc(N=NC(N)=O)c(O)cc21 (centres undefined) | 1.03 | – |

| SMILES | relative cell density (vehicle: DMSO) | relative cell density (vehicle: Water) |
| --- | --- | --- |
| COc1ccc(/C=C/C(=O)Nc2ccccc2C(=O)O)cc1OC | 0.977 | – |
| CCN(CC)CCNC(=O)c1c(C)[nH]c(/C=C2\C(=O)Nc3ccc(F)cc32)c1C | 1 and 1.35 | – |
| CC(=O)OCC(=O)[C@@]12OC(C)(C)O[C@@H]1C[C@H]1[C@@H]3C[C@H](F)C4=CC(=O)C=C[C@]4(C)[C@@]3(F)[C@@H](O)C[C@@]12C | 1.17 | – |
| c1ccc2c(CC3=NCCN3)cccc2c1 | 1.21 | – |
| CC(=O)c1cc2c(o1)C(=O)c1ccccc1C2=O | 0.343 | – |
| CCN(CC)CC(=O)Nc1c(C)cccc1C | 1.29 and 1.05 | – |
| O=C1NS(=O)(=O)c2ccccc21 | 1.24 | – |
| CC(C)COc1ccc(CNC(=O)N(Cc2ccc(F)cc2)C2CCN(C)CC2)cc1 | 1.14 | – |
| O=c1oc2c(O)c(O)cc3c(=O)oc4c(O)c(O)cc1c4c23 | – | 0.975 |
| CNC(=O)c1cc(Oc2ccc(NC(=O)Nc3ccc(Cl)c(C(F)(F)F)c3)cc2)ccn1 | 1.21 and 1.09 | – |
| COc1cccc2c1C(=O)c1c(O)c3c(c(O)c1C2=O)C[C@@](O)(C(C)=O)C[C@@H]3O[C@H]1C[C@H](N)[C@H](O)[C@H](C)O1 | 0.109 | – |
| Cc1cn([C@H]2C=C[C@@H](CO)O2)c(=O)[nH]c1=O | 1.02 | – |
| O=C([O-])C(O)C(O)C(O)C(O)C(=O)[O-].O=C([O-])C(O)C(O)C(O)C(O)C(=O)[O-].O=C([O-])C(O)C(O)C(O)C(O)C(=O)[O-].[Fe+3].[Fe+3] (centres undefined) | 1.12 | – |
| CN1C(CCl)Nc2cc(Cl)c(S(N)(=O)=O)cc2S1(=O)=O (centres undefined) | 1.05 | – |
| CO/N=C(\C(=O)N[C@@H]1C(=O)N2C(C(=O)[O-])=C(C[n+]3cccc4c3CCC4)CS[C@H]12)c1csc(N)n1 | 1.08 | – |
| CC(O)Cn1cnc2c1c(=O)n(C)c(=O)n2C (centres undefined) | 1.25 | – |
| CS(=O)(=O)OCCCCOS(C)(=O)=O | 1.05 | – |
| CC[C@@H]1C(=O)OC[C@@H]1Cc1cncn1C | 1.16 | – |
| O=c1c(-n2ccnn2)c[nH]n1-c1cc(N2CCOCC2)ncn1 | – | 1.2 |
| COc1cc2nccc(Oc3ccc(NC(=O)NC4CC4)c(Cl)c3)c2cc1C(N)=O | 1.04 | – |
| C[C@@H](O[C@H]1OCCN(Cc2nn(P(=O)(O)O)c(=O)[nH]2)[C@H]1c1ccc(F)cc1)c1cc(C(F)(F)F)cc(C(F)(F)F)c1 | 1.07 | – |
| CCC(C)(Oc1ccc(C2(c3ccc(OC(C)(CC)C(=O)O)cc3)CCCCC2)cc1)C(=O)O (centres undefined) | 0.785 | – |
| O=C(CCCN1CCN(c2ccccn2)CC1)c1ccc(F)cc1 | 1.13 | – |
| C[C@H](CCC(=O)O)[C@H]1CC[C@H]2[C@@H]3[C@@H](O)C[C@@H]4C[C@H](O)CC[C@]4(C)[C@H]3CC[C@]12C | 1.05 | – |
| COC(=O)C1=C(C#N)NC(C)=C(C(=O)OC(C)C)C1c1cccc([N+](=O)[O-])c1 (centres undefined) | 1.08 | – |
| COCCCN1CCC(NC(=O)c2cc(Cl)c(N)c3c2OCC3)CC1 | 1 and 1.41 | – |
| N[C@@H](Cc1cc(I)c(Oc2ccc(O)c(I)c2)c(I)c1)C(=O)O | 1.01 | – |
